PubChem BioAssay AID1259254 – NCATS – 2017

Purpose: 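Finding genes that stop cells copying their DNA twice in one cycle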 (primary screen)
Cells: human HCT116 colorectal cancer cells
Knock-down reagent: single siRNA against human genes
Timing: 3 days
Measured: 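Imaged Hoechst DNA stain sorts each cell into a cycle phase by DNA amount; per plate, G2 fraction set to 0% for non-targeting and 100% for GMNN siRNA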
Scale: G2 robust z-score and G2 cells, % of GMNN control: higher = more G2 cells, more excess DNA replication; raw share of cells in G2: higher = larger share of cells with G2 DNA content
Active means: 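Active siRNAs have a G2 robust z of 5 or more median absolute deviations over the median, which in these data means about 38% or higher of GMNN control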
The whole screen tested about 59,000 reagents; below is an unselected part. About 1,550 of them (2.6%) count as active. 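G2 share is only a proxy for re-replication; each gene was hit by three separate siRNAs, and active genes were retested.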 Raw values are not corrected between plates. The numbers tell different reagents against one gene apart. The record does not give: the amount of reagent.

gene | reagent | G2 robust z-score | G2 cells, % of GMNN control | raw share of cells in G2 (%) | Outcome
VPS8 | 1 | 0.269 | 4.86 | 6.24 | inactive
VPS8 | 2 | 0.271 | 4.88 | 6.05 | inactive
VPS8 | 3 | -0.859 | -3.08 | 2.22 | inactive
TRIM68 | 1 | 0.318 | 5.2 | 8.71 | inactive
TRIM68 | 2 | 0.606 | 7.23 | 7.03 | inactive
TRIM68 | 3 | -0.189 | 1.64 | 5.02 | inactive
RRP15 | 1 | -0.514 | -0.646 | 3.61 | inactive
RRP15 | 2 | -0.204 | 1.53 | 5.13 | inactive
RRP15 | 3 | 2.53 | 20.7 | 9.79 | inactive
PRF1 | 1 | 0.779 | 8.45 | 8.57 | inactive
PRF1 | 2 | -0.202 | 1.54 | 4.83 | inactive
PRF1 | 3 | 3.33 | 26.4 | 12.9 | inactive
DCTN5 | 1 | 0.664 | 7.64 | 8.61 | inactive
DCTN5 | 2 | 0.321 | 5.22 | 6.09 | inactive
DCTN5 | 3 | -0.345 | 0.543 | 4.99 | inactive
PNPLA4 | 1 | 2.9 | 23.4 | 15.5 | inactive
PNPLA4 | 2 | -0.217 | 1.44 | 4.47 | inactive
PNPLA4 | 3 | 2.07 | 17.5 | 9.55 | inactive
JUP | 1 | -0.822 | -2.82 | 4.61 | inactive
JUP | 2 | 0.119 | 3.8 | 6.43 | inactive
JUP | 3 | 1.49 | 13.4 | 9.12 | inactive
WDR91 | 1 | 2.23 | 18.7 | 11 | inactive
WDR91 | 2 | -0.313 | 0.763 | 4.84 | inactive
WDR91 | 3 | -0.803 | -2.68 | 2.41 | inactive
N4BP3 | 1 | -0.561 | -0.982 | 4.6 | inactive
N4BP3 | 2 | -0.237 | 1.3 | 4.67 | inactive
N4BP3 | 3 | -0.182 | 1.69 | 3.81 | inactive
THUMPD3 | 1 | 0.0901 | 3.6 | 5.77 | inactive
THUMPD3 | 2 | 2.06 | 17.4 | 11.5 | inactive
THUMPD3 | 3 | 3.21 | 25.5 | 12.2 | inactive
GABARAPL2 | 1 | 0.796 | 8.57 | 6.8 | inactive
GABARAPL2 | 2 | -0.47 | -0.34 | 4.04 | inactive
GABARAPL2 | 3 | 0.653 | 7.56 | 9.4 | inactive
LRIT3 | 1 | 2.61 | 21.3 | 15.1 | inactive
LRIT3 | 2 | 0.705 | 7.93 | 8.06 | inactive
LRIT3 | 3 | -0.206 | 1.51 | 4.84 | inactive
HMGB3P27 | 1 | 0.299 | 5.07 | 5.58 | inactive
HMGB3P27 | 2 | 0.609 | 7.25 | 6.17 | inactive
HMGB3P27 | 3 | 1.07 | 10.5 | 6.7 | inactive
THAP4 | 1 | 0.64 | 7.47 | 6.71 | inactive
THAP4 | 2 | 1.25 | 11.8 | 8.99 | inactive
THAP4 | 3 | 2.44 | 20.1 | 9.59 | inactive
ITGB3BP | 1 | 0.583 | 7.07 | 7.07 | inactive
ITGB3BP | 2 | 0.155 | 4.06 | 5.7 | inactive
ITGB3BP | 3 | 0.282 | 4.95 | 5.03 | inactive
UCN | 1 | 0.138 | 3.94 | 7.26 | inactive
UCN | 2 | 1.73 | 15.1 | 9.46 | inactive
UCN | 3 | 1.68 | 14.8 | 9.76 | inactive
PXK | 1 | -1.44 | -7.15 | 3.37 | inactive
PXK | 2 | 0.433 | 6.01 | 7.38 | inactive
PXK | 3 | 0.0134 | 3.06 | 4.66 | inactive
MRPL32 | 1 | -0.587 | -1.16 | 4.07 | inactive
MRPL32 | 2 | -0.13 | 2.05 | 5.53 | inactive
MRPL32 | 3 | -1.26 | -5.88 | 1.15 | inactive
CERS2 | 1 | 2.5 | 20.6 | 11.7 | inactive
CERS2 | 2 | 3.91 | 30.5 | 16.1 | inactive
CERS2 | 3 | 4.3 | 33.2 | 13.7 | inactive
PFKM | 1 | -1.19 | -5.41 | 3.82 | inactive
PFKM | 2 | -0.077 | 2.43 | 6.23 | inactive
PFKM | 3 | -0.868 | -3.14 | 2.92 | inactive
SLC25A28 | 1 | 2.59 | 21.2 | 11.9 | inactive
SLC25A28 | 2 | 1.1 | 10.7 | 9.9 | inactive
SLC25A28 | 3 | 4.08 | 31.7 | 16.5 | inactive
SERPING1 | 1 | -0.42 | 0.0105 | 3.99 | inactive
SERPING1 | 2 | -0.115 | 2.16 | 5.45 | inactive
SERPING1 | 3 | 0.321 | 5.23 | 6.93 | inactive
SLC19A3 | 1 | -0.201 | 1.55 | 6.08 | inactive
SLC19A3 | 2 | 0.0164 | 3.08 | 5.93 | inactive
SLC19A3 | 3 | 4.99 | 38.1 | 18 | inactive

7 entries already listed, ordered by “G2 cells, % of GMNN control”, highest first.
gene | reagent | G2 robust z-score | G2 cells, % of GMNN control | raw share of cells in G2 (%) | Outcome
LRIT3 | 1 | 2.61 | 21.3 | 15.1 | inactive
LRIT3 | 2 | 0.705 | 7.93 | 8.06 | inactive
GABARAPL2 | 3 | 0.653 | 7.56 | 9.4 | inactive
HMGB3P27 | 2 | 0.609 | 7.25 | 6.17 | inactive
HMGB3P27 | 1 | 0.299 | 5.07 | 5.58 | inactive
LRIT3 | 3 | -0.206 | 1.51 | 4.84 | inactive
GABARAPL2 | 2 | -0.47 | -0.34 | 4.04 | inactive
